The text below walks through data of patent publication US20130045184A1 (published 2013).

The target in assay [1] is FA-1 antigen on murine sperm (murine). In words: in vitro sperm binding assay, staining, light microscopy.
Assay [2] shares this target. In words: in vitro binding of scFv-expressing lactobacilli to mouse sperm, light micrograph.

No constants are given. Whether binding was seen depends on the method and setting. Binding can be weak; no strength is given.

B1: scFv J102 (scFv)
scFv: MAEVQLLESGGGLVQPGGSLRLSCAASGFTFSDHDMHWVRQAPGKGLEWVSGISWKSDSMAYRDSVKGRFTISRDNSKNTLYLQMNSLRAEDTAVYYCARDQEHFDFDYWGQGTLVTVSSGSAGGGGSGGGGSGGGGSDIVLTQPPSASGTPGQRVTISCSGSSSNLGSNTVNWYQQLPGKAPKLLIYDNNQRPSGVPDRFSGSKSGTSASLAISGLRSEDEADYYCAAWDDSLSGLVFGTGTKLTVL
notes: Human-derived scFv from a phage display library; also called Clone J102
In the case of B1, the binding entry in assay [1] and in assay [2] was “binds” throughout.
